Data taken from paper PMC7803728.
These are yes or no findings as the source states them, for the method shown. In cells and extracts the contact can be indirect. Some entries that bind do so weakly or less than the wild type.

Protein sequences, listed by entry. Tags and fused reporters are not part of them.
UniProt P56517: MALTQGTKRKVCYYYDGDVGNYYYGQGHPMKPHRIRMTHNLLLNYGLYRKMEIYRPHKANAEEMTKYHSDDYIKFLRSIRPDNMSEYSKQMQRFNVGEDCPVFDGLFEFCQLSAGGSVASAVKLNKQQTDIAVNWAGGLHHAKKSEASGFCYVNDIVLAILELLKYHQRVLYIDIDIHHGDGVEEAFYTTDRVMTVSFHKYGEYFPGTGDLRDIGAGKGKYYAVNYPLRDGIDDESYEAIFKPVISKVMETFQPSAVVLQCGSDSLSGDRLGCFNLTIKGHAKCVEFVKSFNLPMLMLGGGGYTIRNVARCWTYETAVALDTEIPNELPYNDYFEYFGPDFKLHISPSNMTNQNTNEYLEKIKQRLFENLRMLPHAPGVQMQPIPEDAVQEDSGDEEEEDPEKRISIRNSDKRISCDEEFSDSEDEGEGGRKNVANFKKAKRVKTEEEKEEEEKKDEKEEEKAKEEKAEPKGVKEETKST
UniProt P56519: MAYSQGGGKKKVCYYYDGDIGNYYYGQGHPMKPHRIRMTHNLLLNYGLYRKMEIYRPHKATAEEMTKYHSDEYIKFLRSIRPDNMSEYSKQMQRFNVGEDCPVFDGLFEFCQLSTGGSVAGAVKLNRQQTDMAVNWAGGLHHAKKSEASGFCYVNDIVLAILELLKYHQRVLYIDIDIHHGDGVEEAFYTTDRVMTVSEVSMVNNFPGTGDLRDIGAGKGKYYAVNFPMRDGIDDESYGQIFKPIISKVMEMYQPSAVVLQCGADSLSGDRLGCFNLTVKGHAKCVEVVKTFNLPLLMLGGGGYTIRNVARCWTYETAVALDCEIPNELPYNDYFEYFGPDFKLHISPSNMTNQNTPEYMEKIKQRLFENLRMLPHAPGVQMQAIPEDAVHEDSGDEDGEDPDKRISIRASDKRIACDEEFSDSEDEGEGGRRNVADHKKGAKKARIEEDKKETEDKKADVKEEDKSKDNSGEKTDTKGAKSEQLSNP

Columns and labels:
[1] = biological target: FLAG tagged full length chHDAC1 (pcDNA-FLAG-chHDAC1) (chicken) (UniProt P56517); test: co-IP; 293T cells co-transfected with FLAG- and HA-tagged chHDAC1 (or chHDAC2) with pcDNA-T7-Meq or empty vector, 48 h; precipitated with FLAG antibody or normal mouse IgG; Western blot with T7, HA and FLAG antibodies
[2] = biological target: FLAG tagged full length chHDAC2 (pcDNA-FLAG-chHDAC2) (chicken) (UniProt P56519); test: as above

Row | binding [1] | binding [2] | Substance
1 | binds | – | HA tagged full length chHDAC1 (pcDNA-HA-chHDAC1) (from UniProt P56517 1-480) (enzyme)
2 | – | binds | HA tagged full length chHDAC2 (pcDNA-HA-chHDAC2) (from UniProt P56519 1-488) (enzyme)
